Results on 58 compounds are retold here after PubChem BioAssay AID1487 (National Center for Advancing Translational Sciences (NCATS), 2009).

Some of the results follow. These are further read-outs of the screen, such as a control signal, another cell line or another target. No call is given for them. Most of these compounds were active or inconclusive in the main read-out, so they are no random draw. The note in brackets gives the kind of curve behind each potency; many fits are weak.

A word on the AC50: it is the midpoint of the concentration-response curve, whichever way the signal moves.

The assay can be described thus: qHTS Assay for Modulators of Lamin A Splicing. Conditions: HeLa LMNA splicing GFP/RFP minigene ratio, 48 h. The essentials: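 S3 HeLa stable clones carrying a lamin A-EGFP splicing minigene plus DsRed2 were seeded at 600 cells/well in Opti-MEM with 2% FBS, pin-dosed and incubated 48 h at 37°C. Acumen cytometry (488 nm) gave the GFP/RFP total-intensity ratio.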
(In qHTS, concentration-response curves come from the screen itself.)

Where [1] appears, read: measured here: GFP splicing reporter channel.
[2] abbreviates: measured here: RFP viability control channel.

Consider `Cc1ccccc1-c1noc(N)c1C#N`, for which, under setting [1], the AC50 was 35.5 µM [falling, single point].
Regarding `CC(O)CNc1nc2ccccc2n1CC(=O)NC12CC3CC(CC(C3)C1)C2` (stereo unspecified), the concentration at half-maximal activity (AC50) under setting [1] is 35.5 µM [falling, partial curve, poor fit].
For `Cn1c(=O)c2c(ncn2C[C@@H](O)CO)n(C)c1=O`, the AC50 under setting [1] is 0.251 µM [falling, partial curve, poor fit] and the half-maximal activity concentration (AC50) under setting [2] is 0.00708 µM [falling, full curve, poor fit].
With `Cc1cccc(-c2cc3nc4c(c(NCc5ccco5)n3n2)CCCC4)c1`, the AC50 under setting [1] was 6.31 µM [falling, partial curve] and the AC50 under setting [2] is 5.62 µM [falling, partial curve].
On to `CCOc1ccc(-n2c(SCc3ccc([N+](=O)[O-])cc3)nnc2-c2ccc(OC)cc2)cc1`, for which the half-maximal activity concentration (AC50) under setting [1] is 25.1 µM [rising, single point] and the AC50 under setting [2] was 35.5 µM [rising, single point].
With `CCCc1cc(=O)oc2c(C)c3occ(C)c3cc12`, the AC50 under setting [1] was 12.6 µM [rising, single point].
Take `O=c1c2ccccc2nc2n1-c1ccccc1CCC2`: under setting [2], the AC50 is 1.41 µM [falling, partial curve].
On to `Cc1ccc(Cl)cc1N1CCN(C(=O)CN(C2CCCCC2)S(C)(=O)=O)CC1`, for which the half-maximal activity concentration (AC50) under setting [2] was 15.8 µM [rising, partial curve].
For `COc1ccc(C2=CC(c3ccc(C)cc3)n3nnnc3N2)cc1` (stereo unspecified), the half-maximal activity concentration (AC50) under setting [2] is 31.6 µM [rising, single point].
Still for that read-out and setting: next, `CCOC(=O)c1[nH]c(C)c(C(=O)Nc2ccccc2C)c1C`: 0.501 µM [rising, full curve, poor fit]; `O=C1CCC(=O)N1CCCCCc1nc(-c2ccccc2)no1`: 11.2 µM [rising, partial curve, poor fit].
With `Cc1cc(C)c2c(c1)[C@@H]1C=CC[C@@H]1[C@H](c1ccc(S(=O)(=O)N3CCOCC3)cc1)N2`, the concentration at half-maximal activity (AC50) under setting [1] was 2.51 µM [rising, full curve].
In the case of `CCOC(=O)N1CCN(c2ncnc3c2[nH]c2ccc(OC)cc23)CC1`, under setting [2], the AC50 is 5.01 µM [rising, partial curve].
`Cc1ccccc1Oc1ccc(NC(=O)C2CC=CCC2C(=O)O)cc1` (stereo unspecified): the AC50 under setting [2] is 22.4 µM [rising, single point].
With `COc1ccc(C)cc1NC(=O)CN1CCN(c2ccc(F)cc2)CC1`, the AC50 by setting is: under setting [1], 11.2 µM [rising, partial curve]; under setting [2], 12.6 µM [rising, partial curve].
Consider `Cc1ccc(N(CC(=O)NCCSCc2ccco2)S(=O)(=O)c2ccc(F)cc2)cc1`, for which the AC50 was 35.5 µM [falling, single point] under setting [1] and 20 µM [falling, partial curve] under setting [2].
As to `CC(C)Cn1c(SCc2cccc(F)c2)nc2ccsc2c1=O`, the AC50 under setting [2] is 31.6 µM [rising, single point].
Consider `CC(=O)c1cc2c(cc1N/C(=N/S(=O)(=O)c1ccc(C)cc1)c1ccc(Cl)cc1)OCO2`, for which the concentration at half-maximal activity (AC50) runs as follows: under setting [1], 1.58 µM [rising, partial curve, poor fit]; under setting [2], 2 µM [rising, partial curve, poor fit].
Regarding `COc1ccc(Cc2nc3ccc(C(=O)NCCc4ccc(Cl)cc4)cc3o2)cc1`, the half-maximal activity concentration (AC50) under setting [1] was 5.62 µM [falling, partial curve, poor fit].
`O=C(Nc1ccc(Br)c(Cl)c1)C1CC1`: the half-maximal activity concentration (AC50) under setting [2] was 11.2 µM [rising, partial curve, poor fit].
With `O=C(NCCc1ccccc1)c1ccc2nc(-c3ccco3)c(-c3ccco3)nc2c1`, under setting [2], the concentration at half-maximal activity (AC50) was 15.8 µM [rising, single point].
Turning to `N/C(=N/OC(=O)c1ccccc1Cl)c1nonc1N`, the AC50 under setting [1] was 1.12 µM [rising, full curve].
As to `O=C(CSc1nnc(-c2ccccc2)n1Cc1ccccc1)NNC(=O)c1ccccc1O`, the AC50 runs as follows: under setting [1], 35.5 µM [rising, single point]; under setting [2], 35.5 µM [rising, single point].
In the case of `Cc1ccccc1NC1=C(Cl)C(=O)OC1NC(=O)c1ccccc1` (stereo unspecified), under setting [2], the AC50 was 25.1 µM [rising, single point].
Same read-out and setting: next, `COc1cc2c(cc1NC(=O)CSc1nccn1C)oc1ccccc12`: 14.1 µM [rising, partial curve, poor fit].
Regarding `COCCNC(=O)C(OC(=O)c1cccs1)c1ccc(F)cc1` (stereo unspecified), the AC50 under setting [1] is 1.12 µM [falling, full curve, poor fit] and the AC50 under setting [2] is 0.126 µM [falling, full curve].
In the case of `COc1ccccc1-c1cc(C(F)(F)F)nc(S(=O)(=O)CCCC(=O)O)n1`, the AC50 under setting [1] was 35.5 µM [falling, single point] and the AC50 under setting [2] is 35.5 µM [falling, single point].
`O=C1CC(N2CCN(c3nc4ccccc4s3)CC2)C(=O)N1Cc1cccs1` (stereo unspecified): the AC50 under setting [2] is 22.4 µM [rising, single point].
The same measure, in the same setting: then `COc1cccc(NS(=O)(=O)c2cc(-c3cnc(C4CC4)o3)ccc2C)c1`, with 1.12 µM [rising, full curve]; and `O=C(COc1ccc(Cl)cc1)Nc1nnc(-c2ccc3c(c2)CCCC3)o1`, with 2.51 µM [rising, partial curve]; and `CCCCC1CC(C)(C(=O)CSc2nc3ccccc3s2)OC1=O` (stereo unspecified), with 15.8 µM [rising, single point].
Regarding `CCCCCc1c(C)nc(Nc2ccccc2)[nH]c1=O`, under setting [2], the concentration at half-maximal activity (AC50) is 14.1 µM [rising, single point].
Consider `Cc1ccc(O)c(-c2cc(C(=O)Nc3ccc(S(=O)(=O)N4CC(C)OC(C)C4)cc3)[nH]n2)c1` (stereo unspecified), for which, under setting [2], the AC50 is 14.1 µM [rising, single point].
As to `N#Cc1cc2c(nc1SCC(=O)NCc1ccc3c(c1)OCO3)CCCCC2`, the concentration at half-maximal activity (AC50) reads like this: under setting [1], 12.6 µM [rising, single point]; under setting [2], 20 µM [rising, single point].
In the case of `COc1ccc(N2C(=O)CCSC23C(=O)N(Cc2ccc(F)cc2)c2ccccc23)cc1Cl` (stereo unspecified), under setting [2], the AC50 was 3.55 µM [rising, partial curve].
Turning to `CCc1ccc(N=c2c([N+](=O)[O-])nn(-c3ccccc3)n2O)cc1`, the AC50 under setting [2] was 22.4 µM [rising, single point].
On to `CCn1c(SCC(=O)Nc2cc(C)ccc2C)nnc1-c1cnccn1`, for which the half-maximal activity concentration (AC50) under setting [2] was 2 µM [falling, full curve, poor fit].
`O=C(Nc1ccc(Cl)cc1C(=O)N1CCOCC1)c1cccc([N+](=O)[O-])c1`: the concentration at half-maximal activity (AC50) under setting [2] is 8.91 µM [rising, partial curve].
Take `O=C(CC1N=C2c3ccccc3N=C(SCc3ccccc3Cl)N2C1=O)NC1CCCCC1` (stereo unspecified): the half-maximal activity concentration (AC50) under setting [2] was 0.0708 µM [falling, full curve, poor fit].
Consider `CCOc1cc(CNC(C)(C)CO)cc(Br)c1OCc1ccc(Cl)cc1Cl`, for which the concentration at half-maximal activity (AC50) is 15.8 µM [falling, single point] under setting [1] and 7.08 µM [falling, single point] under setting [2].
For `C/C(=N\NC(=O)C(=O)Nc1cccc(Cl)c1)c1ccncc1`, the concentration at half-maximal activity (AC50) under setting [1] is 1.78 µM [rising, full curve].
On to `CC(CCc1ccccc1)NC(=O)c1cccnc1` (stereo unspecified), for which, under setting [2], the AC50 is 1.41 µM [rising, full curve, poor fit].
As to `O=S(Cc1cc(Sc2ccccc2)nc(-c2ccccc2)n1)c1ccccc1` (stereo unspecified), the half-maximal activity concentration (AC50) is 8.91 µM [rising, partial curve] under setting [1] and 14.1 µM [rising, single point] under setting [2].
`CCOC(=O)N1CCC(n2c(SCC(=O)Nc3nccs3)nc3ccsc3c2=O)CC1`: under setting [2], the AC50 was 8.91 µM [rising, partial curve, poor fit].
Regarding `Clc1ccc(Cn2ncc3c(N4CCCCC4)ncnc32)c(Cl)c1`, the AC50 under setting [1] was 35.5 µM [rising, single point].
Regarding `COc1ccc(Br)cc1CNC(=O)CCSCc1ccc(Cl)cc1`, the half-maximal activity concentration (AC50) under setting [2] was 0.0562 µM [rising, full curve, poor fit].
Turning to `COc1ccc(CCNC(=O)CCCOc2ccc(C)cc2)cc1OC`, the AC50 runs as follows: under setting [1], 12.6 µM [rising, single point]; under setting [2], 35.5 µM [rising, single point].
On to `O=c1c(Cc2ccc(F)cc2)c(O)ccn1Cc1cccc(Cl)c1`, for which the half-maximal activity concentration (AC50) under setting [2] is 11.2 µM [rising, partial curve].
As for `CCOc1cccc(C(=O)NC(=S)Nc2cccc(NC(=O)c3ccccc3Cl)c2)c1`, the half-maximal activity concentration (AC50) under setting [2] is 11.2 µM [rising, single point].
On to `C/C(=N\Nc1nc2ccccc2s1)c1ccc2c(c1)OCO2`, for which the AC50 is, setting by setting: under setting [1], 8.91 µM [rising, partial curve, poor fit]; under setting [2], 31.6 µM [rising, partial curve].
On to `COC(=O)[C@@H](NC(=O)CCc1nnc(-c2ccsc2)o1)C(C)C`, for which the AC50 under setting [2] is 3.98 µM [falling, partial curve, poor fit].
As to `CCC(=O)c1ccc(OCC(=O)NCC2(N3CCCCC3)CCCCC2)cc1`, the AC50 under setting [1] is 2.24 µM [rising, full curve, poor fit].
Regarding `CN1/C(=C\C(=O)CSc2nnc(N)s2)C(C)(C)c2ccccc21`, the AC50 is, setting by setting: under setting [1], 8.91 µM [rising, partial curve]; under setting [2], 15.8 µM [rising, partial curve].
In the case of `CN1CCN(C(=O)CCc2ncc(C(F)(F)F)cc2Cl)CC1`, the half-maximal activity concentration (AC50) under setting [1] was 0.891 µM [rising, single point].
In the case of `Cc1cc2cc3c(N)[nH]nc3nc2cc1C`, the half-maximal activity concentration (AC50) under setting [1] was 5.62 µM [rising, single point].
`COc1ccc(CNC(=O)CN2C(=O)NC3(CCCCCC3)C2=O)cc1OC`: the half-maximal activity concentration (AC50) under setting [1] is 0.0224 µM [falling, full curve, poor fit] and the AC50 under setting [2] is 0.0562 µM [falling, full curve, poor fit].
For the compound `CCCN1C[C@H](CSC)C[C@H]2c3cccc4[nH]cc(c34)C[C@@H]21`, the AC50 is, setting by setting: under setting [1], 12.6 µM [falling, single point]; under setting [2], 14.1 µM [falling, single point].
On to `Fc1cccc(F)c1-c1nc(-c2ccncc2)no1`, for which the AC50 is 35.5 µM [rising, single point] under setting [1] and 35.5 µM [rising, single point] under setting [2].
